Among the data in US20090233074A1 (ARTIFICIAL CELL TECHNOLOGIES, published 2009) are binding values, retold here.

In the assay the target is T1, LN3 (long negative designed polypeptide).
T1 sequence (peptide): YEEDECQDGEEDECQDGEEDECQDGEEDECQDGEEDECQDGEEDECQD
Kind of assay: QCM, layer-by-layer assembly, 10 mM Tris pH 7.4, 10 mM NaCl, 1 mM DTT, 16 layers.

Results are given in words; binding and its absence hold for the method and conditions named. Some results given as binding are weak or reduced against the parent protein; the word gives no strength.

As for YKGKKSCHGKGKKSCHGKGKKSCHGKGKKSCH [SP5 (positive designed polypeptide)], the binding entry is “binds”.
